No constants are given. Whether binding was seen depends on the method and setting. Binding seen in cells or lysates may run through a third protein.
Molecular target: Thrombospondin 1 (THBS1) (human (endogenous in BEAS-2B)) (UniProt P07996)
Assay: co-IP; BEAS-2B lysates in IP buffer, protein A/G agarose beads and anti-tag antibody overnight at 4 °C, washed with NaCl buffer, Western blot; cells under control, LPS + CIH, LPS + CIH + Ang-(1-7) or ad-THBS1 conditions; which protein was precipitated is not told

By UniProt entry, the sequences of proteins in these tests, tags left out. Residues count along the entry.
UniProt P07996, residues 19-1170: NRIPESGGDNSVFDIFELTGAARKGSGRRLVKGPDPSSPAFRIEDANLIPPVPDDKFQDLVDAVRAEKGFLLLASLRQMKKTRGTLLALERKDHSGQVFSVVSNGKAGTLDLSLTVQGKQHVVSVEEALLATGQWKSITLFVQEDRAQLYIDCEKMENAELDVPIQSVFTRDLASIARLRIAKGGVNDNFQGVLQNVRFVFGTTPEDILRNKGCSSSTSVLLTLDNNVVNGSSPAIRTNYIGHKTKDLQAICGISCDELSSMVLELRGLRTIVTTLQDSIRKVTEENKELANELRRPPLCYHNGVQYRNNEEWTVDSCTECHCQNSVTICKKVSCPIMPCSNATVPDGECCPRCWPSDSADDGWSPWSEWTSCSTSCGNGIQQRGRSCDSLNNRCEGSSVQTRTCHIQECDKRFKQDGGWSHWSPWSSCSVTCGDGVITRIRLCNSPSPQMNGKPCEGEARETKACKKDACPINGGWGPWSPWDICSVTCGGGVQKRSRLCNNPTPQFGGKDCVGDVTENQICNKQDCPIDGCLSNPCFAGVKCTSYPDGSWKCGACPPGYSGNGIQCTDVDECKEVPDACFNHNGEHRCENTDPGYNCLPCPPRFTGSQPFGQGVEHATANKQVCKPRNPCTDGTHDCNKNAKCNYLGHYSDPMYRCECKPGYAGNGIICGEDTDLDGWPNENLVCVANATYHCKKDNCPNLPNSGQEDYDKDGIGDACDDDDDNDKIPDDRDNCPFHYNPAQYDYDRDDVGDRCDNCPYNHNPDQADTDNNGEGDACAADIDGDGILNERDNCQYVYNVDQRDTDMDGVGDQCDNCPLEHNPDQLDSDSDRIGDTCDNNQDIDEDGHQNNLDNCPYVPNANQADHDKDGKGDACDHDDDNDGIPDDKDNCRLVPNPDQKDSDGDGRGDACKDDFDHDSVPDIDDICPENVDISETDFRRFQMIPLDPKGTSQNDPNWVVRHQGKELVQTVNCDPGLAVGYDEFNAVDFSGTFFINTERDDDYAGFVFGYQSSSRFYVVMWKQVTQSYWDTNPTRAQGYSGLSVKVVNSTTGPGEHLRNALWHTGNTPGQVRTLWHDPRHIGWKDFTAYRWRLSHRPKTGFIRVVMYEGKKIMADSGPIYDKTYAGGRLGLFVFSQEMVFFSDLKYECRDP

B1: ULK2 (protein, UniProt Q8IYT8 1-1036)
chain: MEVVGDFEYSKRDLVGHGAFAVVFRGRHRQKTDWEVAIKSINKKNLSKSQILLGKEIKILKELQHENIVALYDVQELPNSVFLVMEYCNGGDLADYLQAKGTLSEDTIRVFLHQIAAAMRILHSKGIIHRDLKPQNILLSYANRRKSSVSGIRIKIADFGFARYLHSNMMAATLCGSPMYMAPEVIMSQHYDAKADLWSIGTVIYQCLVGKPPFQANSPQDLRMFYEKNRSLMPSIPRETSPYLANLLLGLLQRNQKDRMDFEAFFSHPFLEQGPVKKSCPVPVPMYSGSVSGSSCGSSPSCRFASPPSLPDMQHIQEENLSSPPLGPPNYLQVSKDSASTSSKNSSCDTDDFVLVPHNISSDHSCDMPVGTAGRRASNEFLVCGGQCQPTVSPHSETAPIPVPTQIRNYQRIEQNLTSTASSGTNVHGSPRSAVVRRSNTSPMGFLRPGSCSPVPADTAQTVGRRLSTGSSRPYSPSPLVGTIPEQFSQCCCGHPQGHDSRSRNSSGSPVPQAQSPQSLLSGARLQSAPTLTDIYQNKQKLRKQHSDPVCPSHTGAGYSYSPQPSRPGSLGTSPTKHLGSSPRSSDWFFKTPLPTIIGSPTKTTAPFKIPKTQASSNLLALVTRHGPAEEQSKDGNEPRECAHCLLVQGSERQRAEQQSKAVFGRSVSTGKLSDQQGKTPICRHQGSTDSLNTERPMDIAPAGACGGVLAPPAGTAASSKAVLFTVGSPPHSAAAPTCTHMFLRTRTTSVGPSNSGGSLCAMSGRVCVGSPPGPGFGSSPPGAEAAPSLRYVPYGASPPSLEGLITFEAPELPEETLMEREHTDTLRHLNVMLMFTECVLDLTAMRGGNPELCTSAVSLYQIQESVVVDQISQLSKDWGRVEQLVLYMKAAQLLAASLHLAKAQIKSGKLSPSTAVKQVVKNLNERYKFCITMCKKLTEKLNRFFSDKQRFIDEINSVTAEKLIYNCAVEMVQSAALDEMFQQTEDIVYRYHKAALLLEGLSRILQDPADIENVHKYKCSIERRLSALCHSTATV
B1 was tested, and the binding was “no binding”.
